Assay results as given in PubChem BioAssay AID2551 (National Center for Advancing Translational Sciences (NCATS), 2010).
Hit rate of the full screen: of about 310,000 compounds, about 17,000 (5.5%) were called active. Inconclusive results, whose numbers are uncertain, are shown with a selection of clear calls. Calls follow the shape of the dose curve; as a rule, active = well fitted inhibition curve with a large enough effect; inconclusive = small, poorly fitted or top-dose-only effect, or effect the other way; inactive = no such curve, though single readings can be large or run the other way. A potency beside an inconclusive call is a rough fit, not a confirmed value.

Amino acid sequences for entries named in this document (tags omitted). A change or cut given only in a name is not applied to a line headed by its entry.
UniProt P51450: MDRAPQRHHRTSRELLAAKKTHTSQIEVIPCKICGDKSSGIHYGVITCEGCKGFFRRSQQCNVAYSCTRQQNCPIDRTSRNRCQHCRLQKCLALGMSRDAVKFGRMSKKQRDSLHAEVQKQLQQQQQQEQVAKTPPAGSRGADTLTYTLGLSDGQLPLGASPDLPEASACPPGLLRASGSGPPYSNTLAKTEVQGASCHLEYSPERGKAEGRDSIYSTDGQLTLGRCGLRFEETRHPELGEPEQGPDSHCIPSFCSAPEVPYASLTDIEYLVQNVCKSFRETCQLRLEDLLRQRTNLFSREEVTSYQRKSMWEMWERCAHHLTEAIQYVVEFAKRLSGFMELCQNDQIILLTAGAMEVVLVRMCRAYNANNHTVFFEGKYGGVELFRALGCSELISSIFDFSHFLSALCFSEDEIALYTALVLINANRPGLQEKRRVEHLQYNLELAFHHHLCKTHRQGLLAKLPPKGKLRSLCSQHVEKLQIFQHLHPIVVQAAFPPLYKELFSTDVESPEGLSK

Target: Nuclear receptor ROR-gamma (Mus musculus) (UniProt P51450)
Test: qHTS for inhibitors of ROR gamma transcriptional activity; also: nearly all actives have a fitted effect of over 60% in size
Details: Drosophila S2 Gal4-RORgamma UAS-luciferase reporter, 20 h; activity change, negative = inhibition: at 53.6 µM (top of the series)
How it was run: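 Read-out: Photinus luciferase luminescence; inhibitors lower reporter signal. Insect Schneider cells with Gal4-ROR gamma fusion under metallothionein promoter, UAS reporter; 700 uM final copper sulfate induction, 20 hr, ambient temperature.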
% is scaled to controls: 0 for no effect and ±100 for the full control effect; potency is read from the fitted curve at half-maximal effect.

Compound	Potency	activity change, negative = inhibition
CC(C)(C)n1[nH]c2c3c(ccc2c1=O)C(=O)c1ccccc1C3=O	inconclusive: 5.01 µM [inhibitor, full curve, poor fit]	
COc1ccc(S(=O)(=O)N2CCN(C(=S)NCCc3ccccc3)CC2)cc1		inactive: 26.3%
O=[N+]([O-])c1ccc(/C=N/Nc2ccnc3cc(Cl)ccc23)o1		inactive: -14.7%
O=C(CSc1nc2cc(Cl)ccc2s1)NC(=O)NCc1ccco1	inconclusive: 35.5 µM [inhibitor, single point]	
C=CC(=O)NCCCc1cc(C(C)(C)C)c(O)c(C(C)(C)C)c1	inconclusive: 8.91 µM [activator, partial curve]	
N=c1c(S(=O)(=O)c2ccccc2)cc2c(=O)n3ccccc3nc2n1Cc1ccco1	inconclusive: 1.58 µM [inhibitor, full curve, poor fit]	
Cc1nc2ccc(NC(=O)c3cccc(S(=O)(=O)N(C)c4ccccc4)c3)cc2s1	inconclusive: 20 µM [activator, single point]	
N#Cc1cn(CC(=O)NCCc2c[nH]c3ccccc23)c2ccccc12	inconclusive: 35.5 µM [activator, single point]	
Cc1oc(/N=C/c2ccccc2)c(C#N)c1C		inactive: -0.419%
CCc1c(C)sc(NC(=O)C2CC2c2ccccc2)c1C(N)=O (stereo not drawn)	inconclusive: 11.2 µM [activator, partial curve]	
O=C(NCC1CCCO1)C(c1ccc(F)cc1)N(CC1CCCO1)C(=O)c1ccc(-c2ccccc2)[nH]1 (stereo not drawn)	inconclusive: 11.2 µM [activator, partial curve]	
O=S(=O)(c1ccccc1)N1CCN(C2CCCCCCC2)CC1	active: 12.6 µM	
CCCC(=O)Nc1ccc(C(=O)N/N=C/c2ccc[nH]2)cc1	inconclusive: 28.2 µM [inhibitor, single point]	
C=CCn1c(SCC(=O)c2cccs2)nc2sc(C)c(C)c2c1=O	inconclusive: 35.5 µM [inhibitor, single point]	
CC1CN(C(C)C(=O)NC(c2ccccc2)c2ccccc2)CC(C)O1 (stereo not drawn)		inactive: -8.41%
CC(C)C[C@H](NC(=O)[C@H](CCCCN)NC(=O)CNC(=O)[C@H](CC(C)C)NC(=O)[C@@H](NC(=O)[C@@H]1CSSC[C@H](N)C(=O)N[C@@H](CO)C(=O)N[C@@H](CC(N)=O)C(=O)N[C@@H](CC(C)C)C(=O)N[C@@H](CO)C(=O)N[C@@H]([C@@H](C)O)C(=O)N1)C(C)C)C(=O)N[C@@H](CO)C(=O)N[C@@H](CCC(N)=O)C(=O)N[C@@H](CCC(=O)O)C(=O)N[C@@H](CC(C)C)C(=O)N[C@@H](Cc1cnc[nH]1)C(=O)N[C@@H](CCCCN)C(=O)N[C@@H](CC(C)C)C(=O)N[C@@H](CCC(N)=O)C(=O)N[C@H](C(=O)N[C@@H](Cc1ccc(O)cc1)C(=O)N1CCC[C@H]1C(=O)N[C@@H](CCCNC(=N)N)C(=O)N[C@H](C(=O)N[C@@H](CC(N)=O)C(=O)N[C@H](C(=O)NCC(=O)N[C@@H](CO)C(=O)NCC(=O)N[C@H](C(=O)N1CCC[C@H]1C(N)=O)[C@@H](C)O)[C@@H](C)O)[C@@H](C)O)[C@@H](C)O		inactive: 6.83%
COc1cccc2c(=O)cc(C)n(CC(=O)Nc3cccc(C)c3)c12	inconclusive: 6.31 µM [activator, single point]	
CC(C)(C)n1nnnc1C(c1ccc(C(F)(F)F)cc1)N(Cc1ccc(F)cc1)Cc1ccco1 (stereo not drawn)	inconclusive: 6.31 µM [inhibitor, single point]	
O=C(NN1CCCCC1)c1ccc(COc2ccc(Cl)cc2)cc1		inactive: -1.32%
COc1ccccc1Nc1nnc(SCC2CCCCO2)s1 (stereo not drawn)		inactive: 6.8%
CCOC(=O)C1(CCCCCCOc2ccc(Cl)cc2)CO1 (stereo not drawn)	inconclusive: 35.5 µM [activator, single point]	

Compound	Potency	activity change, negative = inhibition
Cc1cc(NC(=O)/C=C/c2cccc(F)c2)n(-c2nc3ccccc3[nH]2)n1	active: 1.58 µM	
COc1ccccc1C(=O)NCCC(=O)NCCC12CC3CC(CC(C3)C1)C2		inactive: 3.87%
Cc1ccc(-c2cccc(C(=O)NCc3ccccc3)n2)c2ccccc12		inactive: -13.6%
Cc1cc(C)cc(OC(C)C(=O)Nc2ccc3c(c2)n(C)c(=O)n3C)c1 (stereo not drawn)	inconclusive: 6.31 µM [activator, partial curve]	
CC(=O)N(C)c1ccc(OCC(O)Cn2c3ccc(Cl)cc3c3cc(Cl)ccc32)cc1 (stereo not drawn)	active: 20 µM	
COc1ccc(C(=O)NCc2ccc3c(c2)CCO3)cc1		inactive: -5.83%
Cc1n[nH]c(C)c1CCOc1ccc(C(C)C)cc1	inconclusive: 35.5 µM [inhibitor, single point]	
O=C(/C=C\c1ccccc1)Oc1cccc2cccnc12	active: 1.41 µM	
COc1ccc(N2C(=O)CC(N3CCCC4CCCCC43)C2=O)cc1 (stereo not drawn)	inconclusive: 3.55 µM [inhibitor, single point]	
COc1ccc2c(c1)O[C@@H](c1ccc3c(c1)OCO3)[C@H](OC(=O)NS(=O)(=O)c1ccc(C)cc1)C2=O	inconclusive: 31.6 µM [inhibitor, single point]	
O=C(c1cccc(S(=O)(=O)NCc2ccccc2)c1)N1CCCC1		inactive: -5.36%
COc1ccc(OC)c(CCNC(=O)c2ccc3c(=O)[nH]c4c(C(=O)NC(C)C)sc(=S)n4c3c2)c1	inconclusive: 17.8 µM [activator, single point]	
CCOC(=O)/C=C/C(=O)Nc1ccc(Oc2ccccc2)cc1	inconclusive: 2.51 µM [activator, partial curve, poor fit]	
COCCn1c(SCC(=O)Nc2cc(C)on2)nnc1C(C)C		inactive: -29.5%
CC(C)(C)c1ccc(OCC(O)CN(CCO)CC(O)Cn2ccc3ccccc32)cc1 (stereo not drawn)	inconclusive: 35.5 µM [inhibitor, single point]	
CCOC(=O)c1ccccc1OCc1cc(/C=N/n2cncn2)ccc1OC	inconclusive: 2 µM [activator, partial curve]	
O=C(Nc1cccc(Oc2ccc3c(c2)C(=O)NC3=O)c1)c1ccco1	inconclusive: 0.891 µM [activator, full curve, poor fit]	
CC(C)OC(=O)c1cccc(NC(=O)c2ccccc2)c1	inconclusive: 10 µM [activator, single point]	
O=C(NCC(NS(=O)(=O)OCC(Cl)(Cl)Cl)c1ccccc1)C(F)(F)F (stereo not drawn)		inactive: 14.1%
O=C(NC1CCCCC1)N(Cc1cc2cc3c(cc2[nH]c1=O)OCCO3)CC1CCCO1 (stereo not drawn)	inconclusive: 35.5 µM [inhibitor, single point]	
O=C(Nc1ccc(OCc2ccccc2)cc1)c1cccs1	inconclusive: 12.6 µM [activator, single point]	

Compound	Potency	activity change, negative = inhibition
O=C1CC(Sc2ncn[nH]2)C(=O)N1c1ccccc1 (stereo not drawn)	inconclusive: 20 µM [inhibitor, partial curve, poor fit]	
CCc1cc2c(nc1CC)CCN(CC/C(C)=N/OC[C@H]1O[C@H](c3ccccc3)C=C[C@@H]1Oc1ccc(OC)cc1)C2	inconclusive: 22.4 µM [activator, single point]	
CC(C)(C)c1cc(C2=CSC3=NCCN23)cc(C(C)(C)C)c1O	inconclusive: 11.2 µM [inhibitor, single point]	
Cc1cc(C)c(S(=O)(=O)N(C)CC(=O)NCCN2CCOCC2)c(C)c1		inactive: 1.88%
Cc1cc(Br)c(NC(=O)Cn2c([N+](=O)[O-])cnc2C)cc1C		inactive: -14.7%
COc1ccccc1CCN1C(=S)NC(C)(C)CC1(C)O (stereo not drawn)	active: 2.82 µM	
CCSc1nc(-c2ccccc2)c(C#N)c(=O)[nH]1	inconclusive: 12.6 µM [activator, single point]	
CCN(CC)c1cc(C)c2cc(NC(=O)c3ccccc3OC)ccc2n1	inconclusive: 15.8 µM [inhibitor, single point]	
CCn1nc(NC(=O)C(C)C)c2cc3cccc(C)c3nc21		inactive: -3.67%
O=C(COC(=O)CCc1nc2ccccc2s1)Nc1cccc(S(=O)(=O)N2CCOCC2)c1	inconclusive: 5.62 µM [inhibitor, single point]	
Cc1ccc(N2C(=O)CC(C)CC2=O)cc1		inactive: -21.9%
Cc1cc(C)c(OCCNC(=O)c2ccccc2Sc2ccccc2C#N)c(C)c1	inconclusive: 12.6 µM [activator, single point]	
Cc1cc(/C=C2/NC(=O)N(Cc3ccccc3F)C2=O)c(C)n1-c1ccccn1	inconclusive: 11.2 µM [activator, partial curve]	
CCCOc1ccc(C(=O)NC(=S)Nc2nc3ccccc3s2)cc1	active: 0.794 µM	
Cc1ccc(S(=O)(=O)/N=C(/Nc2ccc3[nH]c(=O)[nH]c3c2)c2ccc(F)cc2)cc1		inactive: 14.9%
O=C(O)c1ccc(N/N=C/c2ccc(-c3ccccc3Cl)o2)cc1	inconclusive: 0.0794 µM [inhibitor, full curve, poor fit]	
CCOC(=O)c1ccc(NC(=O)c2cn(-c3ccccc3)nc2-c2ccncc2)cc1	inconclusive: 11.2 µM [activator, partial curve]	
O=C(O)CCC[C@H](O)\C=C/C=C/C=C/[C@H](O)C/C=C\CCCCCO	inconclusive: 1.78 µM [activator, partial curve]	
CC(C)COC(=O)NCCOC(=O)Nc1cccc(Cl)c1	inconclusive: 22.4 µM [activator, single point]	
COc1ccc(-c2cn(-c3ccc(C)cc3)c(=O)n2CC(=O)Nc2cccc(F)c2)cc1	inconclusive: 20 µM [activator, single point]	
CCOc1cc(N2CCOCC2)c(OCC)cc1NC(=O)CSc1cccc[n+]1[O-]	inconclusive: 10 µM [inhibitor, partial curve, poor fit]	

In the list so far, 4 contain a cyano group:
Compound	Potency	activity change, negative = inhibition
N#Cc1cn(CC(=O)NCCc2c[nH]c3ccccc23)c2ccccc12	inconclusive: 35.5 µM [activator, single point]	
Cc1oc(/N=C/c2ccccc2)c(C#N)c1C		inactive: -0.419%
CCSc1nc(-c2ccccc2)c(C#N)c(=O)[nH]1	inconclusive: 12.6 µM [activator, single point]	
Cc1cc(C)c(OCCNC(=O)c2ccccc2Sc2ccccc2C#N)c(C)c1	inconclusive: 12.6 µM [activator, single point]	
